{"source": "patent US20240238259A1", "about": "“COMBINATION THERAPY FOR PULMONARY HYPERTENSION” (VIVUS LLC, priority 2015, published 2024)", "system": "BMPR2 signaling (BRE from the Id1 promoter linked to luciferase, C2C12 mouse myoblastoma reporter cells)", "assay": "BRE-Luc reporter high throughput screen for compounds that increase BMPR2 signaling", "type": "cell-based", "details": "screen of library of >3,600 compounds", "method": "A C2C12 mouse myoblastoma reporter cells line where the BRE (BMP Response Element) from the Id1 promoter (a main downstream target of BMP signaling) was linked to luciferase (BRE-Luc) was used to identify compounds that increase BMPR2 signaling. Thus, activation of the BMP pathway was measured by luminescence. A high throughput screen of a library containing greater than 3,600 compounds was used.", "note": "At least one compound was matched to its structure with a doubt left."}
{"compound": "CO[C@H]1C[C@@H]2CC[C@@H](C)[C@@](O)(O2)C(=O)C(=O)N2CCCC[C@H]2C(=O)O[C@H]([C@H](C)C[C@@H]2CC[C@@H](O)[C@H](OC)C2)CC(=O)[C@H](C)/C=C(\\C)[C@@H](O)[C@@H](OC)C(=O)[C@H](C)C[C@H](C)/C=C/C=C/C=C/1C", "note": "[rapamycin]", "values": [{"measurement": "BMPR2 signaling (activation of the BMP pathway measured by luminescence)", "result": "increased BMPR2 signaling"}]}
